Results deposited as PubChem BioAssay AID720505 (Drosophila RNAi Screening Center, 2013)
In all, the deposit lists about 20,000 reagents; below is an unselected part of those that have a named target and a result. Of all reagents, about 2,100 (10%) were called active. 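Raw plate signals without normalisation; calls rest on control-based scores that were not deposited; replicate 2 separates called from uncalled poorly.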 A number with no mark means an inactive call. Reagents against one gene are numbered here. Reagent sequences are not shown. Not given: the amount of reagent, the time to read-out.

- Assay: 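Knock-downs that reduce calcium influx once internal stores are emptied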 (primary screen)
- Cell system: Drosophila S2R+ cells
- Knock-down reagent: long dsRNA against Drosophila genes
- Challenge: thapsigargin (2 µM) in calcium-free buffer to empty internal stores, then 2 mM calcium added back
- Measured: 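Stores emptied by 2 µM thapsigargin without calcium, then 2 mM calcium re-added; fluo-4 fluorescence followed by FLIPR in 384-well plates, per-well averaged endpoint, raw; two screen passes, some wells retested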
- Reading the numbers: calcium signal and retest calcium signal: higher = more calcium entry after store depletion
- Active means: 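About 1500 genes called as lowering calcium entry, by varying amounts, judged against per-plate control wells with STIM1 as positive and Rho1 as negative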
- Calls: active = called as lowering calcium entry; inactive = not called

no.	gene	dsRNA no.	calcium signal, replicate 1	calcium signal, replicate 2	retest calcium signal, replicate 1	retest calcium signal, replicate 2
1	Ho	1	117	124		
2	CG12698	1	105	130		
3	g	1	76.2 (active)	105		
4	EMC7	1	114	130		
5	Mst57Da	1	153	116		
6	xmas-1 (retired record)	1	90.5	119		
7	Obp69a	1	110	92.5		
8	CG9922	1	114	151		
9	Med	1	122	134		
10	Cpr65Az	1	119	104		
11	Cpr65Az	2	94.8	190		

Records above marked active (1):
gene	dsRNA no.	calcium signal, replicate 1	calcium signal, replicate 2	retest calcium signal, replicate 1	retest calcium signal, replicate 2
g	1	76.2 (active)	105		

More records follow:
no.	gene	dsRNA no.	calcium signal, replicate 1	calcium signal, replicate 2	retest calcium signal, replicate 1	retest calcium signal, replicate 2
12	Cmpk	1	105	174		
13	CG13559	1	157	182		
14	Hk	1	116	132		
15	Hk	2	63.2 (active)	119		
16	Mabi	1	67.8	106	115	103
17	CG2906	1	109	130		
18	CG31465	1	124	170		
19	CR17567 (retired record)	1	72	167		
20	CR17567 (retired record)	2	109	150		
21	AGO2	1	66.7	108		
22	AGO2	2	125	68.1		
23	cac	1	120	80		
24	cac	2	151	87.7		
25	maf-S	1	76.7	82.4		
26	CG43110	1	85.2	101		
27	CG17036	1	89.8	151		
28	Sec20	1	114	128		
29	CG1275	1	111	87.1		
30	CG15764	1	208	136		
31	Fkbp14	1	141	98.1		
32	mora	1	243	142		
33	PK2-R1	1	164	208		
34	Tbcd	1	82.3	143		
